Like-named read-outs stand apart in the source and are kept apart here. Results are given in words; binding and its absence hold for the method and conditions named. Binding seen in cells or lysates may run through a third protein. Some results given as binding are weak or reduced against the parent protein; the word gives no strength.
Legend:
[1] = biological target: T1, S100A9 (mouse (endogenous in RAW264.7)) (UniProt P31725); assay: co-IP
T1 sequence: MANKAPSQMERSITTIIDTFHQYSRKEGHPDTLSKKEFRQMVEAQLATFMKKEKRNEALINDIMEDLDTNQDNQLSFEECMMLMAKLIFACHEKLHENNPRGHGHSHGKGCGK

Chains of the proteins cited; added tags and fusions are not shown. Residues count along the entry.
UniProt Q79FK9: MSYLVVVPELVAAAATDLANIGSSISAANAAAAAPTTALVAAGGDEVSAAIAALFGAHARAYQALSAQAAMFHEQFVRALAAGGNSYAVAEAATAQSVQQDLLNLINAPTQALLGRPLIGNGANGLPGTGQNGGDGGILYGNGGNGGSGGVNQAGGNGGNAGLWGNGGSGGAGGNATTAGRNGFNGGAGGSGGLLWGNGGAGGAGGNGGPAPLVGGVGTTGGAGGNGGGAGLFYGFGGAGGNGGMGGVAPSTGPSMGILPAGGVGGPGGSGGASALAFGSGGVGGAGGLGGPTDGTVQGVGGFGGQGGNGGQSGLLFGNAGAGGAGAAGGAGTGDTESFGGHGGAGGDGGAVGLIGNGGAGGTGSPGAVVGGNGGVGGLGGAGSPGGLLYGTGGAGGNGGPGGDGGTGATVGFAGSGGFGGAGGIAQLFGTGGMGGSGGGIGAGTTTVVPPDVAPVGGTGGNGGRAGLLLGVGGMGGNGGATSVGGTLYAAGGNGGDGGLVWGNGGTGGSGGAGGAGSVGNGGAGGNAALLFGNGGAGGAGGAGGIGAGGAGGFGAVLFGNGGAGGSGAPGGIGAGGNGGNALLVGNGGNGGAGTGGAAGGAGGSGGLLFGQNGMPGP
UniProt Q9QUK6, residues 26-835: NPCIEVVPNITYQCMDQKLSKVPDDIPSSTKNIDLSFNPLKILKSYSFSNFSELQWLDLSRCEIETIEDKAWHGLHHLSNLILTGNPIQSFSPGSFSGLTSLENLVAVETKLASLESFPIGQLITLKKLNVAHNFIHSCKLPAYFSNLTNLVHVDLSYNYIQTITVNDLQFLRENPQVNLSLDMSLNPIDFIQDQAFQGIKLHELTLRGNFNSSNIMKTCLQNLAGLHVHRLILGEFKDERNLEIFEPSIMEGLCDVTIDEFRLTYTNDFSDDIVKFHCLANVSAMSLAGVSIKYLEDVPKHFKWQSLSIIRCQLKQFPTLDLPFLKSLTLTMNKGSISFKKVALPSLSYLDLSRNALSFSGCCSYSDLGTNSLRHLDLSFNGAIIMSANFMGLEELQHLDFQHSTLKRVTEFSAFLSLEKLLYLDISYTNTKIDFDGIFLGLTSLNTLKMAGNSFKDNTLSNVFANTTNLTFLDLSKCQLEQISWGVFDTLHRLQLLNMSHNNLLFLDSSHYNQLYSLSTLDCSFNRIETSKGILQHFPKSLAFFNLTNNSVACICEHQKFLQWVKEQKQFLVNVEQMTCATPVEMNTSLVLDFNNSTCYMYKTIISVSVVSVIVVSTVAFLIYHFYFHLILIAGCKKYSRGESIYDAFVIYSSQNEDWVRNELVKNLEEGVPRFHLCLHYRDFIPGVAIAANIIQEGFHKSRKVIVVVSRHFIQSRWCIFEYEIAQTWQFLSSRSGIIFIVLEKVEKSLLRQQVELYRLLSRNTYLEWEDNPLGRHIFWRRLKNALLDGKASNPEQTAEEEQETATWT

[2] = biological target: Rv1768 (PE_PGRS31), full-length, 6xHis-tagged (M. tuberculosis H37Rv) (UniProt Q79FK9); assay: pull-down; only the target purified
[3] = biological target: Rv1768 (PE_PGRS31), full-length, 6xHis-tagged (M. tuberculosis H37Rv) (UniProt Q79FK9); assay: pull-down; only the target purified; remark: listed apart in the source

Which binding [1] does the source give for “Rv1768 expressed from pcDNA3.1-Rv1768 in RAW264.7 cells (from UniProt Q79FK9 1-618)” here?
Its binding is “binds”.

With “Toll-like receptor 4 (TLR4) (from UniProt Q9QUK6 26-835)” as the molecule, how does the binding [2] read?
Its binding is “no binding”.

B1: S100A9 (protein, UniProt P31725 1-113)
chain: MANKAPSQMERSITTIIDTFHQYSRKEGHPDTLSKKEFRQMVEAQLATFMKKEKRNEALINDIMEDLDTNQDNQLSFEECMMLMAKLIFACHEKLHENNPRGHGHSHGKGCGK
Which binding [3] does the source give for B1 here?
Its binding is “binds”.
